From publication PMC6073470 (International Journal of Molecular Sciences, 2018)
No constants are given. Whether binding was seen depends on the method and setting. Some results given as binding are weak or reduced against the parent protein; the word gives no strength.

Columns and labels:
Details in all cases: remark: other sources report otherwise
[1] = target: T1, human small heat shock protein HspB8, wild type (human), Q9UJY1; assay: cross-linking; DSS 0-500 uM, 30 min at 37 C in PBS after reduction with DTT and desalting; SDS-PAGE; both purified
T1 chain: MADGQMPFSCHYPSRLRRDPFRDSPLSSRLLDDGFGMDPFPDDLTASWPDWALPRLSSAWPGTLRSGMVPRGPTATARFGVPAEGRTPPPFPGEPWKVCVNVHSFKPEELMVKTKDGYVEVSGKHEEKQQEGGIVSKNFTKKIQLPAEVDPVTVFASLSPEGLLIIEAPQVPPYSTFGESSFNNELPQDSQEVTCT

[2] = target: T1, human small heat shock protein HspB8, …; assay: AUC; sedimentation velocity, 42,000 rpm, 20 C; 50 mM phosphate pH 6.8, 150 mM NaCl, 2 mM DTT; 0.4 mg/mL (HspB1, HspB8) or 0.8 mg/mL (HspB4, HspB5, HspB6); SEDFIT; both purified
[3] = target: T1, human small heat shock protein HspB8, …; assay: cross-linking; disulfide formation by mild oxidation of SH groups: dialysis without reducing agent at 37 C, 2-24 h, 1.2 mg/mL, stopped with iodoacetamide; SDS-PAGE; data not presented; both purified

Measured: binding

B1: human small heat shock protein HspB8, wild type, Q9UJY1 1-196 (natural protein)
chain: T1 chain
binds: all assays above
